Laboratory results published in publication doi:10.1101/2024.06.06.597704.
No constants are given. Whether binding was seen depends on the method and setting. Binding seen in cells or lysates may run through a third protein. These calls come from enrichment with a bait or labelling near it, and not all partners need be listed.

T1: ECT2^WT-mCherry (Arabidopsis thaliana) (UniProt Q9LJE5)
T1 sequence: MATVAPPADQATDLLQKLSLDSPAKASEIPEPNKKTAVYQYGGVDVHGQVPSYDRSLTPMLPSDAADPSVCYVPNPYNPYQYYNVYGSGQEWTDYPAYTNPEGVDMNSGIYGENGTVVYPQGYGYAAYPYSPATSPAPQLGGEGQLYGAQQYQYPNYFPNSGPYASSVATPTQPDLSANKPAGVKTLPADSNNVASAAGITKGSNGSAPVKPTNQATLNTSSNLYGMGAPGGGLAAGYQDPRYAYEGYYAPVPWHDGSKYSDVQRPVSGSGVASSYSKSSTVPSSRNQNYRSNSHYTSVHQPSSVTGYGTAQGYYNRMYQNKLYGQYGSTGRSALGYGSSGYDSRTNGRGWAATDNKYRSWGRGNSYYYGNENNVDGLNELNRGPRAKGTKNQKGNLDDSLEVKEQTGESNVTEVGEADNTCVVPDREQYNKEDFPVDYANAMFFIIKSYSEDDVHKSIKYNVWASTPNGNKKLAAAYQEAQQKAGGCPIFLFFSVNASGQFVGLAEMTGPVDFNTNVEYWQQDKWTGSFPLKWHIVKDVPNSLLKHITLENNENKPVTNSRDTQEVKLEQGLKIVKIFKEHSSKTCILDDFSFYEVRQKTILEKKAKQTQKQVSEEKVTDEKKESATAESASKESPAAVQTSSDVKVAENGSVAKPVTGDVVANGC


Experiments:
[1] = target: T1, ECT2^WT-mCherry (Arabidopsis thaliana); experiment: affinity purification with mass spectrometry
[2] = target: ALBA4-GFP (Arabidopsis thaliana); experiment: affinity purification with mass spectrometry

binding [1] | binding [2] | Molecule
binds | – | ALBA1
binds | – | ALBA2
binds | – | ALBA4
binds | – | ALBA5
– | binds | ECT4 (protein, UniProt A0A1P8AS03 1-605) MSTVAPPADQAADVLKKLSLDSKSRTLEIPEPTKKTGVYQYGAMDSNGQVPSFDRSLSPMLPSDALDPSVFYVPNVYQQPYYYGYGSDYTGYTNSESVDMTSGAYGENASLVYPQGYGYAAFPYSPATSPAPQLGGDGQLYGAQQYQYPFPLTASSGPFASSVPASTQSKLSTNKAANSASAGIPKGMNGSAPVKPLNQSALYGNSALGGGLAAGYQDPRYSYDGFYTPVSWHDGSNFSDVQRSVSGSGVASSYSKANNNVPATRNQNSSSNSHYTSMYQPASMTGYAAQGYYDRVSPNKSYGQYGSTVRSGMGYGSSGYGSRTNERGWLNTDNKYRSRGRGNSYFYGNENIDGLNELNRGPRAKGTKATEEVSSEEVKKQTFDESNTEETVTCVLPDREECNRDDFPVEYKDAKFFIIKSYSEDDVHKSIKYNVWASTPNGNKKLDAAYQEAQQKSSGCPVFLFFSVNASGQFIGLAEMKGPVDFNKNIEYWQQDKWTGSFPLKWHILKDVPNSLLKHITLEYNENKPVTNSRDTQEVKLEQGLKVVKIFKEHNSKTCILDDFSFYEARQKTILEKKAKQQQSQKQVWEGKTNDEKPGTVDSTM
– | binds | ECT1 (protein, UniProt Q3MK94 1-428) MAGAASSDRLVTSFPLLDTADLFQDLSLGSDANEVPMNFTKGSFQHPYGHAPYGASSHGSERRPNMNAGNLLNGGDSIGSYPWGYIPANYPSGGYPDPRFGYDRNSNHSSFSHLMNPHSSQEVPSFDQLGYNDHLYSNHGLYGLYGNVIDSGHAYGTFGYDSWKLGRGWYPVDGYRKTRSFNHGRGYSDEKADRLNELCRGPRSSDFKNPQVLNSSMLDAMKQDVSAVDLQRYNGENFPESFVKAKFFVIKSYSEDDVHNCIKYGAWSSTPTGNKKLNAAYYEAKENSQECPVYLLFSVNASGQFVGLAEMVGPVDFNKTMEYWQQDKWIGCFPVKWHIIKDIPNSLLRHITLANNENKPVTNSRDTQEVNLEHGTKIIKIFKEYMSKTCILDDYKFYETRQKIIRDKKIKQKKQALDGASGETINLS
– | binds | ECT3 (protein, UniProt F4K1Z0 1-495) MANPDHVSDVLHNLSIDPTTKALAPDSETKLQGAYGGNGNDFLLNDELVEATKIGKPSLLSKDGGVTKDKGSNLKKLGYQSAAYNAKGSYGKGAYAYGYYPPAYQYPRHGYTGSYASGKTNLQYQYLTQQGRSAGNGQSYGGYMDNIYSNYGMCGPYTNGYGYGSYGYDSWKYMPNWYAVNNTYKPRNGYHGYGKENIEGLNEMNRGPRAKGFNSQDGSKVMAVSLKEQRVTETEKLSEDVSLLDPKDYNKIDFPETYTEAKFYVIKSYSEDDIHKSIKYSVWSSTPNGNKKLDASYNEAKQKSDGCPVFLLFSVNTSGQFVGLAEMVGPVDFNKTVEYWQQDKWIGCFPVKWHFVKDIPNSSLRHITLENNENKPVTNSRDTQEVKLEQGIKVIKIFKDHASKTCILDDFEFYENRQKIIQERKSKHLQIKKQTLVANADKGVMSKINLVKPQESTTASEDAAALGVAAEVTKESKVVKETELPVEKNAVATAC
– | binds | ECT2 (protein, UniProt Q9LJE5 1-667) MATVAPPADQATDLLQKLSLDSPAKASEIPEPNKKTAVYQYGGVDVHGQVPSYDRSLTPMLPSDAADPSVCYVPNPYNPYQYYNVYGSGQEWTDYPAYTNPEGVDMNSGIYGENGTVVYPQGYGYAAYPYSPATSPAPQLGGEGQLYGAQQYQYPNYFPNSGPYASSVATPTQPDLSANKPAGVKTLPADSNNVASAAGITKGSNGSAPVKPTNQATLNTSSNLYGMGAPGGGLAAGYQDPRYAYEGYYAPVPWHDGSKYSDVQRPVSGSGVASSYSKSSTVPSSRNQNYRSNSHYTSVHQPSSVTGYGTAQGYYNRMYQNKLYGQYGSTGRSALGYGSSGYDSRTNGRGWAATDNKYRSWGRGNSYYYGNENNVDGLNELNRGPRAKGTKNQKGNLDDSLEVKEQTGESNVTEVGEADNTCVVPDREQYNKEDFPVDYANAMFFIIKSYSEDDVHKSIKYNVWASTPNGNKKLAAAYQEAQQKAGGCPIFLFFSVNASGQFVGLAEMTGPVDFNTNVEYWQQDKWTGSFPLKWHIVKDVPNSLLKHITLENNENKPVTNSRDTQEVKLEQGLKIVKIFKEHSSKTCILDDFSFYEVRQKTILEKKAKQTQKQVSEEKVTDEKKESATAESASKESPAAVQTSSDVKVAENGSVAKPVTGDVVANGC
